Assay results taken from PMC11554683.

Protein sequences, listed by entry. Tags and fused reporters are not part of them. Residues count along the entry.
UniProt P63218: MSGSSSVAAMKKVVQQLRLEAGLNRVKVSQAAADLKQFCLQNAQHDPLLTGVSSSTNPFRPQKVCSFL
UniProt P43250: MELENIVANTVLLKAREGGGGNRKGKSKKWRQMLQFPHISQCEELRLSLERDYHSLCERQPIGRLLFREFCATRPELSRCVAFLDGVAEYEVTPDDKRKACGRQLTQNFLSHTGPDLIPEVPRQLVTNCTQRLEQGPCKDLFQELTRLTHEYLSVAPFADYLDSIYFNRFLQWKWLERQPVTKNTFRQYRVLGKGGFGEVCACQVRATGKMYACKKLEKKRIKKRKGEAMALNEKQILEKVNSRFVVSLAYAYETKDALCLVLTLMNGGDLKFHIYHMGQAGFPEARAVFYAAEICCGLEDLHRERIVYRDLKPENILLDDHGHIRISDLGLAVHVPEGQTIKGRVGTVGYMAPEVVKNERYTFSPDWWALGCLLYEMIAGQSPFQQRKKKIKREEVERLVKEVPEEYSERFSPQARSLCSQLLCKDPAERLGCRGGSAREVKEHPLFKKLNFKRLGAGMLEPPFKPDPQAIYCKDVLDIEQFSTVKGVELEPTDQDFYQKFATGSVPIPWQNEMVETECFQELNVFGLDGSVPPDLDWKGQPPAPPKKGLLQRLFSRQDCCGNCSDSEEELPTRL
UniProt P49407: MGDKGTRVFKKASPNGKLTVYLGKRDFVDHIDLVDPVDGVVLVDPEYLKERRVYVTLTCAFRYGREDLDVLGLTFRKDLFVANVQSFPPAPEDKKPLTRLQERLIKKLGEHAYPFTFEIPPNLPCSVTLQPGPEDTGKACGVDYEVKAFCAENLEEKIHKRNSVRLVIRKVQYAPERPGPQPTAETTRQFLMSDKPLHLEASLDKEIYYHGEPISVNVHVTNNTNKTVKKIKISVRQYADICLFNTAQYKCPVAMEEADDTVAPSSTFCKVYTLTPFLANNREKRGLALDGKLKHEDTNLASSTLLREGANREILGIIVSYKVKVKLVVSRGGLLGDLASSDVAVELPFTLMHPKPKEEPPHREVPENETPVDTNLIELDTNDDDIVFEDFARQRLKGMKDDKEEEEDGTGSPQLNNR
UniProt P25025: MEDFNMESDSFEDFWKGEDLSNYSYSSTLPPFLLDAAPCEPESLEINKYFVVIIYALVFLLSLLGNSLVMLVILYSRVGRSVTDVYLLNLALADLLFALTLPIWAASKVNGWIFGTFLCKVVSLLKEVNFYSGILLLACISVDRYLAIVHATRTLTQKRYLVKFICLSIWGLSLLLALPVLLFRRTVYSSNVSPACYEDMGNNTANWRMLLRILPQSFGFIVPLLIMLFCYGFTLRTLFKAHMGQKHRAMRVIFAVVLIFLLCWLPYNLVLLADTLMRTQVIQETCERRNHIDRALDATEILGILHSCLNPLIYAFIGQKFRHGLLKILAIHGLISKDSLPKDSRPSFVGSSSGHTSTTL
UniProt P32121: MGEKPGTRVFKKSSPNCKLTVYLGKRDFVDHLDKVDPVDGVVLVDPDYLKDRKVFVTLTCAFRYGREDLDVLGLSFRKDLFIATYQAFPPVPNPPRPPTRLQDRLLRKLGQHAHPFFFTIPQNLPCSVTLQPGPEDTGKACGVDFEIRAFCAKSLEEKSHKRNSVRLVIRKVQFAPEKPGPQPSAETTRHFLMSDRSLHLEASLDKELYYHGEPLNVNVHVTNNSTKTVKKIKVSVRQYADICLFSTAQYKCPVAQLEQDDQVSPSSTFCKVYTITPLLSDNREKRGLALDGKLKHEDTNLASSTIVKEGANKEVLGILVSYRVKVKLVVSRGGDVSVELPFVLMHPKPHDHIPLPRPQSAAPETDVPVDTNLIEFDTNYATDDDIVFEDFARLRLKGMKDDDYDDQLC
UniProt P05067, residues 18-770: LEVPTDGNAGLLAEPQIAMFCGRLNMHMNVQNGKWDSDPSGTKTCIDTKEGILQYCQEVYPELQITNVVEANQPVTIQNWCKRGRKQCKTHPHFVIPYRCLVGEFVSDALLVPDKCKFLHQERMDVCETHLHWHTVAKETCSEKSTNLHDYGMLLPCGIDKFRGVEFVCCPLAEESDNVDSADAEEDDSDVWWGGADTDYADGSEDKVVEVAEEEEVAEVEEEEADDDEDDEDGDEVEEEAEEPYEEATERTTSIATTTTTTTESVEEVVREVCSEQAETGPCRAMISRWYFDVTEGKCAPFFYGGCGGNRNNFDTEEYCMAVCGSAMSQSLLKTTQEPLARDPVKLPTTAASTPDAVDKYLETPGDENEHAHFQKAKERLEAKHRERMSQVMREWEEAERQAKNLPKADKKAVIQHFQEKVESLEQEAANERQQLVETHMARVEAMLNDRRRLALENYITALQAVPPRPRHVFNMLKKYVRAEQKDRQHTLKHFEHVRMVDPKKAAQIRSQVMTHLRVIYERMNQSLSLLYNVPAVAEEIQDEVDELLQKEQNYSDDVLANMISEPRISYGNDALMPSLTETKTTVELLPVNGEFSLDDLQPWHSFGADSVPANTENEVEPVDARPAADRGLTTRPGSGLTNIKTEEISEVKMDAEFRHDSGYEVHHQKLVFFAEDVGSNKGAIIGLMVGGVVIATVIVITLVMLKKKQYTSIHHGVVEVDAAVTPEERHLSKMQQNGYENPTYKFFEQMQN
UniProt Q92542, residues 34-709: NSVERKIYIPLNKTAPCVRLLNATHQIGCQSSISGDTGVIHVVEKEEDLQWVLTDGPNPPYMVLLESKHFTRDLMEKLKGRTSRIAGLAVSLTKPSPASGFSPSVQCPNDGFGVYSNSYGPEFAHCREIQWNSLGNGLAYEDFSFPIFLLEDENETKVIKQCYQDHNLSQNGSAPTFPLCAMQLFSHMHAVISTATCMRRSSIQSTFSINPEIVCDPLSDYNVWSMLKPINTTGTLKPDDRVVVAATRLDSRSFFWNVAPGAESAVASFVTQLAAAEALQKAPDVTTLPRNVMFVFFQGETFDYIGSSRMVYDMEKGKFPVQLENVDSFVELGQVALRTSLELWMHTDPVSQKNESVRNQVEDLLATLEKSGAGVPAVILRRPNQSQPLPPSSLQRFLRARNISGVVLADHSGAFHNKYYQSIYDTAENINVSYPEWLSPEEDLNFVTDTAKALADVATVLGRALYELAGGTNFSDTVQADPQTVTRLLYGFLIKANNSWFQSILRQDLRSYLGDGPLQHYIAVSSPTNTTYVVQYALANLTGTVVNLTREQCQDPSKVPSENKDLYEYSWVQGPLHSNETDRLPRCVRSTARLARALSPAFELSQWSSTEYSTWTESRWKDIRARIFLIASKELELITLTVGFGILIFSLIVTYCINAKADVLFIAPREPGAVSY
UniProt P63096: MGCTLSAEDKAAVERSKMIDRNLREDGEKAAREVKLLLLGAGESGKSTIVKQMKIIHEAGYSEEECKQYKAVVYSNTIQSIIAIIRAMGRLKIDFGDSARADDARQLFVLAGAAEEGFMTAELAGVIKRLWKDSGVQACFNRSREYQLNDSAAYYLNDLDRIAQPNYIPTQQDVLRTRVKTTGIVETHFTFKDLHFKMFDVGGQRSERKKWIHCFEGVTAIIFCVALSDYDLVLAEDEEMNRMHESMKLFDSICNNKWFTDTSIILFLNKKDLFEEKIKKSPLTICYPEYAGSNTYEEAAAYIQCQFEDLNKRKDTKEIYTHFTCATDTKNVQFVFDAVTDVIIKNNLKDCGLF

Target: human recombinant protein GNG5-FLAG (human) (UniProt P63218)
Experiment: affinity purification with mass spectrometry; membrane proteins of 293T cells stably expressing GNG5-FLAG; anti-FLAG antibody, Protein A/G PLUS-Agarose, 4 °C; co-IP buffer 20 mM HEPES pH 7.5, 50 mM KCl, 2 mM EGTA, 0.25% CHAPSO; SDS-PAGE, in-gel digestion, LC-MS/MS

binding	Substance
binds	G-protein-coupled receptor kinase 6 (GRK6) (from UniProt P43250 1-576)
binds	β-arrestin ARRB1 (from UniProt P49407 1-418)
binds	C-X-C chemokine receptor type 2 (CXCR2) (from UniProt P25025 1-360)
binds	PS2 (from UniProt P49810 1-448)
binds	β-arrestin ARRB2 (from UniProt P32121 1-409)
binds	amyloid precursor protein (APP) (from UniProt P05067 18-770)
binds	NCSTN (from UniProt Q92542 34-709)
binds	GNAI1 (from UniProt P63096 1-354)

No constants are given. Whether binding was seen depends on the method and setting. In cells and extracts the contact can be indirect. A yes stands for co-enrichment or nearness to the bait. Other partners may have been found.
